Source: PubChem BioAssay AID1307 (SRMLSC, 2008)
The whole screen tested about 1,200 compounds, of which fewer than 10 were called active.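 The calls were made as follows: active = inhibition reaching a set limit at one or more tested concentrations; inactive = inhibition under that limit at every dose.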 This is one part of the list. Measured potencies and affinities stand elsewhere.

Test: yeast RAM network inhibitors, dose response, S. cerevisiae (AID 1307);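 also: 0% = DMSO vehicle wells and 100% = 10 µM 1-NA-PP1 control; higher inhibition means more yeast growth since RAM block rescues cells from 5-FOA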
Settings: S. cerevisiae RAM network URA3 reporter, 5-FOA growth OD615, active compounds read high, yeast express analog-sensitive mutant Cbk1 kinase; at 100 µM unless noted

Max inhibition, inactive:
CC(C)CCN(N=O)[C@@H](Cc1ccccc1)CN(N=O)[C@@H](Cc1ccccc1)CN(C)N=O 5.05% [at 50 µM]
Cc1cc2ccccc2n1CCNC(=O)COc1ccc2ccccc2c1 4.59%
CCCCc1ccc(-c2csc(/C(C#N)=C\c3ccc(C)o3)n2)cc1 5.43%
CCN(Cc1ccccc1)c1ccc(/C=N/NS(=O)(=O)c2cccc([N+](=O)[O-])c2)cc1 4.04% [at 25 µM]
O=C(Nc1ccc(-c2nc3ccccc3s2)cc1)c1cc(-n2cnnc2)ccc1Cl 14.8%
COc1ccccc1C1(CCNS(=O)(=O)c2ccc(C)cc2)CCOC(C(C)C)C1 (centres undefined) 5.47% [at 50 µM]
O=C(/C=C/c1ccc(Cl)cc1Cl)NCCSCc1ccccc1 1.44% [at 50 µM]
Cc1ccc(S(=O)(=O)N2CCC(C)CC2)cc1[N+](=O)[O-] 0.92% [at 1.563 µM]
CCCN(CCC)C(=O)c1ccc2c(=O)n(Cc3ccco3)c(=S)[nH]c2c1 3.63%
Cc1ccc(SCCNC(=O)c2ccc(C)c(S(=O)(=O)Nc3ccccc3C)c2)cc1 4.38% [at 50 µM]
O=[N+]([O-])c1ccc(C2CCCC/C2=N/OCc2ccc(F)cc2)c([N+](=O)[O-])c1 (centres undefined) 4.01% [at 0.196 µM]
O=C(CSCc1nc2c(nnn2Cc2ccc(F)cc2)c(=O)[nH]1)Nc1cccc(C(F)(F)F)c1 2.69% [at 0.782 µM]
O=C(CSc1nnc(-c2ccncc2)n1-c1ccccc1Cl)Nc1ccc(C(=O)O)cc1 5.43%
CC(C)C[C@H](NC(=O)c1[nH]cnc1C(=O)N[C@H](C)c1ccccc1)C(=O)OCc1ccccc1 6.21%
O=C(CCOc1ccccc1)Nc1cccc(S(=O)(=O)Nc2ccccc2Cl)c1 2.77% [at 12.5 µM]
Brc1ccc(Cn2c(-c3ccc(Br)o3)nc3ccccc32)o1 3.76% [at 3.125 µM]
Cc1ccc(NC(=O)COC(=O)COc2ccc(Cl)cc2C)c([N+](=O)[O-])c1 3.12%
O=C(O)c1cc(N2N=C(C(F)(F)F)/C(=C/C=C/c3ccco3)C2=O)ccc1Cl 12.9%
COc1cccc(CSc2nc3cc4c(cc3cc2C)OCCO4)c1 4.23% [at 0.391 µM]
Cc1ccc(S(=O)(=O)N(CC(=O)Nc2ccccc2C(=O)O)c2cccc(Cl)c2C)cc1 3.29%
CN(C)c1nc(SCCOC(=O)COc2ccc(Cl)cc2Cl)nc(N(C)C)n1 1.44% [at 0.782 µM]
O=C(Nc1cccnc1Cl)c1ccc2c(Cl)c3c(nc2c1)CCC3 5.53%
Cc1ccc(/C=N/NC(=O)CCCOc2ccc(Cl)cc2Cl)cc1 2.59%
CCOc1ccc(-n2c(C)nc(O)c2N=Nc2ccccc2)cc1 3.78%
O=C(COC(=O)CCCNC(=O)c1ccc(Cl)cc1)Nc1cc(Cl)ccc1Cl 3.65%
O=C(CSCc1ccccc1)Nc1cccc(C(=O)Nc2ccccc2C(=O)O)c1 1.19% [at 3.125 µM]
CCOCCCNC(=O)c1cc(=O)n(Cc2cccc(C)c2)c2ccccc12 3.72% [at 3.125 µM]
N#CC(C#N)=C(Nc1ccc(F)cc1)SCc1cccc(Br)c1 0.58% [at 25 µM]
COc1ccc(COc2ccsc2C(=O)Nc2ccc(Cl)c(Cl)c2)cc1 2.5% [at 6.25 µM]
O=C(CCCn1c(SCc2cccc(F)c2)nc2ccccc2c1=O)NCC1CCCO1 (centres undefined) 4.98% [at 50 µM]
Cc1ccc(C(=O)Nc2ccc(C(=O)O)cc2)cc1S(=O)(=O)NCc1ccccc1 4.27%
O=C(COC(=O)c1cc(Cl)ccc1[N+](=O)[O-])NCc1ccc(Cl)cc1Cl 4.62% [at 1.563 µM]
COC(=O)C(Sc1nc(C)cc(C)c1C#N)c1ccccc1 (centres undefined) 2.46% [at 0.782 µM]
O=C(/C=C/c1ccc(N2CCCCC2)c([N+](=O)[O-])c1)c1ccc(S(=O)(=O)N2CCCC2)cc1 4.39%
O=C(CSc1nc(-c2ccco2)cc(C(F)(F)F)n1)NCCc1ccccc1 2.41% [at 12.5 µM]
Cc1ccc(C(=O)NCCSCc2ccc(Cl)cc2Cl)cc1[N+](=O)[O-] 2.08% [at 0.782 µM]
CCN(Cc1ccccc1)c1ccc(/C=C(\C#N)c2ccccn2)cc1 7.2%
N#Cc1c(C(F)(F)F)cc(C2CC2)nc1N1CCCC1 3.33% [at 3.125 µM]
CCOc1ccc(CNC(=O)CCc2cn(Cc3ccccc3)c3ccccc23)cc1 5.78% [at 50 µM]
O=C(O)c1cc(Sc2ccc(Br)cc2)nc2ccccc12 4.44% [at 50 µM]
Cc1cc(C)nc(N2N=C(CSc3ccc(Cl)cc3)CC2=O)n1 1.21% [at 12.5 µM]
CC(=O)c1ccc(N(C(=O)CS(=O)CC(=O)Nc2ccc(F)cc2)C(C(=O)NC2CCCCC2)c2cccs2)cc1 (centres undefined) 3.56% [at 3.125 µM]
C/C(=N\OC(=O)c1ccc(OC(C)C)cc1)c1ccc(C)c(C)c1 3.12%
O=C(COc1ccccc1)OC(C(=O)c1ccccc1)c1ccccc1 (centres undefined) 2.05% [at 50 µM]
O=C(COC(=O)/C(=C/c1cccs1)c1cccs1)NCc1ccccc1Cl 3.28% [at 0.196 µM]
O=S(=O)(c1ccccc1)n1nc(-c2ccccc2)nc1NCc1ccco1 5.15%
CCCCC(=O)Nc1ccccc1C(=O)OCC(=O)c1ccc2c(c1)OCCO2 2.31% [at 0.196 µM]
O=C(Nc1ccccc1)C1=C[C@@H](C2CCCCC2)C[C@@H](OCc2ccc(CO)cc2)O1 4.47%
S=C(c1ccc(-c2cc(Cl)ccc2Cl)o1)N1CCCCC1 2.31% [at 50 µM]

Taken from the entries so far, 4 compounds:
Max inhibition, inactive:
Cc1cc(C)nc(N2N=C(CSc3ccc(Cl)cc3)CC2=O)n1 1.21% [at 12.5 µM]
CC(=O)c1ccc(N(C(=O)CS(=O)CC(=O)Nc2ccc(F)cc2)C(C(=O)NC2CCCCC2)c2cccs2)cc1 (centres undefined) 3.56% [at 3.125 µM]
C/C(=N\OC(=O)c1ccc(OC(C)C)cc1)c1ccc(C)c(C)c1 3.12%
O=C(COc1ccccc1)OC(C(=O)c1ccccc1)c1ccccc1 (centres undefined) 2.05% [at 50 µM]
